Measured values reported in paper PMC12589908.
No constants are given. Whether binding was seen depends on the method and setting. In cells and extracts the contact can be indirect. A yes stands for co-enrichment or nearness to the bait. Other partners may have been found.

Amino acid sequences for entries named in this document (tags omitted). A change or cut given only in a name is not applied to a line headed by its entry.
UniProt P02795: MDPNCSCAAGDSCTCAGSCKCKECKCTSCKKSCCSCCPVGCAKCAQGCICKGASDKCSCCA
UniProt P14618: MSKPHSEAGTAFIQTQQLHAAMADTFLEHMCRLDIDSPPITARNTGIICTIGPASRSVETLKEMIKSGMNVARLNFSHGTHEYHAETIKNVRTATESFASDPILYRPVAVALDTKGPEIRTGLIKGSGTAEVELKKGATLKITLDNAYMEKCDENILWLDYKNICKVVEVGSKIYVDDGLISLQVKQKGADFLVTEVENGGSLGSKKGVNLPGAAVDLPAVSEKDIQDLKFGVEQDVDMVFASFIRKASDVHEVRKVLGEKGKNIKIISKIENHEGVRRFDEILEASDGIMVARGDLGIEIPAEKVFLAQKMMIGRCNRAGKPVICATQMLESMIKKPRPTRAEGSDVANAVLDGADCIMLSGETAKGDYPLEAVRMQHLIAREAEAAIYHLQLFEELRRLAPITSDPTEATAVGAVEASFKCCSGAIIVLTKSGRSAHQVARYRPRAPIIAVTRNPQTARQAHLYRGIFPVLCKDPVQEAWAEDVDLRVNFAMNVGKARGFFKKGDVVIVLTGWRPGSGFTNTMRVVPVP

Molecular target: MT2A-Flag (metallothionein-2A) (UniProt P02795)
Test: affinity purification with mass spectrometry; MT2A-Flag precipitated with Flag-beads from T47D cells (1x10^8) stably expressing MT2A-Flag, hypoxia (1% O2 for 24 h) versus normoxia; LC-MS/MS

binding: binds
Substance: Pyruvate kinase M2 (PKM2) of T47D cells (from UniProt P14618 1-531) (enzyme)
